# Measurements reported in PubChem BioAssay AID1259260 (Sanger Institute, 2017)
# Test: 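Essential and drug-synergistic kinases in a colorectal cancer cell line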 (primary screen)
# Cells: human NCI-H716 colorectal cancer cells
# Reagent: siRNA pool against human genes
# Conditions: anchor drugs BYL719 (alpelisib) 1 µM, cetuximab 5 µg/ml or trametinib 10 nM, each at a dose chosen to harm viability only mildly; DMSO vehicle for the knock-down-alone arm
# Measurement: 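Mean viability over replicates against non-targeting siRNA, robust z-score without drug, and per-drug synergy comparing combined with single treatments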
# Reading the numbers: viability robust z-score, siRNA alone: higher = more surviving cells; below -3 called essential; viability vs control, no drug: higher = more surviving cells; synergy score with BYL719 and synergy score with cetuximab and synergy score with trametinib: higher = stronger synergy (synthetic lethality) with drug
# Active means: 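a knock-down counts as essential if its no-drug robust z-score is lower than -3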
# Meaning of the calls: active = essential (knock-down alone lowers viability); inactive = no essential effect
# The whole screen tested 794 reagents; shown is a part drawn at random. Over the whole deposit, 13 (1.6%) were called active. 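Calls reflect only knock-down without drug; synergy above 0.15 was grouped apart and does not change the call.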 Unmarked entries are inactive. Viability is capped at 1. No sequences are given here. The record does not give: the amount of reagent, the time to read-out.
Target gene,"viability robust z-score, siRNA alone","viability vs control, no drug (fraction of control)",synergy score with BYL719,synergy score with cetuximab,synergy score with trametinib
XYLB,0.602,1,-0.0874,-0.1,-0.0741
CDK17,0.602,1,-0.248,-0.1,-0.116
MYLK,0.458,0.985,0.0337,-0.114,0.198
PIP4K2C,0.602,1,-0.217,-0.0726,0.016
ATRX,0.602,1,-0.21,-0.1,-0.112
NADK,0.602,1,-0.171,-0.1,0.162
DGUOK,-0.851,0.849,-0.188,-0.128,0.0566
FGFR2,-4.31 (active),0.489,-0.0552,-0.0677,0.0121
ADGRL2,0.602,1,-0.184,-0.1,-0.282
BMPR2,0.602,1,-0.109,0.00423,0.279
LRRK2,0.602,1,-0.283,-0.1,-0.0928
TNK2,0.277,0.966,-0.0108,-0.102,0.084
TLK2,0.602,1,-0.283,-0.1,-0.308
PHKA1,0.602,1,-0.0574,0.00341,-0.0297
MAP3K6,0.602,1,-0.184,-0.0219,0.0362
FXN,0.602,1,-0.283,-0.1,0.0788
SIK1,0.5,0.989,0.0355,0.112,0.0797
CAMK2B,0.602,1,-0.0463,-0.0476,0.329
CSNK1D,0.602,1,-0.283,-0.1,-0.0711
DDR2,0.602,1,-0.0478,-0.1,0.0735
PIK3C2A,0.602,1,-0.283,-0.1,0.137
CDKN1A,0.269,0.965,-0.181,-0.0106,-0.0637
EPHA2,0.602,1,-0.283,-0.1,-0.0724
PKDCC,0.602,1,-0.149,-0.0259,0.166
MSR1,0.56,0.996,-0.0283,-0.00146,0.0768
MAP3K13,0.602,1,-0.00613,-0.1,-0.0686
TSSK3,0.602,1,-0.21,0.0719,-0.145
TYRO3,-0.0365,0.934,-0.153,-0.16,-0.0896
TBX3,0.602,1,-0.234,-0.1,-0.0835
EPHB6,0.602,1,-0.283,-0.1,-0.131
ALPK3,0.602,1,-0.177,-0.1,0.0343
GK2,0.602,1,-0.154,-0.1,-0.0618
STK11,-1.69,0.762,-0.000563,-0.138,0.176
NEK10,0.602,1,-0.252,-0.1,0.149
MED12,-1.33,0.8,-0.0329,-0.11,0.00123
SRC,0.602,1,-0.283,-0.1,-0.301
NRK,0.602,1,-0.219,-0.1,-0.0131
VRK3,0.602,1,0.000714,-0.1,0.0137
PTK2,0.602,1,-0.0224,-0.1,-0.044
TP53RK,0.602,1,-0.0794,-0.1,-0.0104
MAP3K11,0.602,1,-0.153,-0.1,-0.175
PANK1,0.602,1,-0.131,-0.1,-0.132
IKBKG,0.602,1,-0.127,-0.1,0.00768
ADCK2,-0.0079,0.937,-0.107,-0.157,0.0925
EIF2AK1,0.602,1,-0.283,-0.1,-0.149
PFKFB1,-0.397,0.896,-0.0322,-0.148,0.287
ITPKA,0.381,0.977,-0.0451,-0.0181,0.192
RPS6KA1,-0.752,0.859,-0.114,0.178,0.101
SIK2,-0.0394,0.933,-0.12,-0.16,-0.321
COASY,-0.509,0.885,-0.015,-0.109,0.0602

3 of these entries in another layout:
Target gene | viability robust z-score, siRNA alone | viability vs control, no drug (fraction of control) | synergy score with BYL719 | synergy score with cetuximab | synergy score with trametinib
GK2 | 0.602 | 1 | -0.154 | -0.1 | -0.0618
STK11 | -1.69 | 0.762 | -0.000563 | -0.138 | 0.176
NEK10 | 0.602 | 1 | -0.252 | -0.1 | 0.149
